For part of these data: At least one compound was matched to its structure with a doubt left. Some of these results come from one statement about several compounds together.
How the values were obtained:
Type in all cases: cell-based
[1] = system: S. aureus (ATCC 29213); experiment: Melanocortin peptides on S. aureus viability (colony formation)
Experimental: S. aureus (ATCC 29213) and C. albicans (clinical isolate) were obtained from the collection of the Department of Microbiology, Ospedale Maggiore di Milano. C. albicans were maintained on Sabouraud'[…] periodically transferred to Sabouraud's agar plates and incubated for 48 hours at 28° C. To prepare stationary growth phase yeast, a colony was taken from the agar plate and transferred into 30 ml Sabouraud-dextrose broth and incubated for 72 hours at 32° C. Cells were centrifuged at 100×g for 10 minutes and the pellet was washed twice with distilled water. Cells were counted and suspended in Hank's balanced salt solution (“HBSS”) to the desired concentration. Viability, determined by the exclusion of 0.01% methylene blue, remained >98%. […] Cells were then washed in cold distilled water and diluted with HBSS to a concentration of 100 organisms/ml. One ml aliquots were dispensed on blood agar plates and incubated for 24 hours at 37° C. Organism viability was estimated from the number of colonies formed.

[2] = system: C. albicans killing by human neutrophils; experiment: C. albicans killing by human neutrophils
Experimental: Venous blood (20 ml) from healthy volunteers was anticoagulated with heparin. Neutrophils were isolated using dextran sedimentation and Ficoll-Hypaque (Sigma Chemical Co., St. Louis, Mo., USA) centrifugation. Erythrocytes were lysed via hypotonic shock. Neutrophils represented at least 97% of the cell suspension. Cell viability, estimated by trypan blue exclusion, was >98%. Neutrophils were suspended to final concentration in HBSS. […] After incubation, the culture tubes were placed on ice to stop growth and extracellular organisms were washed twice with centrifugation at 100×g at 4° C. A 2.5% sodium desoxycholate solution was added to the suspension and the tubes were shaken for five minutes. Cold distilled water was added to obtain a suspension of 10^6 cells/ml. Two 1/100 serial dilution in HBSS were made to obtain a final suspension of 100 cells/ml. Aliquots of 1 ml were dispensed on blood agar plates and incubated for 48 hours at 37° C. Colony forming units (“CFU”) were counted at the end of the incubation period. Experiments were run in triplicate and repeated using blood from five different donors.

[3] = system: C. albicans (clinical isolate); experiment: Melanocortin peptides on C. albicans viability (colony forming units)
Experimental: S. aureus (ATCC 29213) and C. albicans (clinical isolate) were obtained from the collection of the Department of Microbiology, Ospedale Maggiore di Milano. C. albicans were maintained on Sabouraud'[…] periodically transferred to Sabouraud's agar plates and incubated for 48 hours at 28° C. To prepare stationary growth phase yeast, a colony was taken from the agar plate and transferred into 30 ml Sabouraud-dextrose broth and incubated for 72 hours at 32° C. Cells were centrifuged at 100×g for 10 minutes and the pellet was washed twice with distilled water. Cells were counted and suspended in Hank's balanced salt solution (“HBSS”) to the desired concentration. Viability, determined by the exclusion of 0.01% methylene blue, remained >98%. […] Cells were then washed in cold distilled water and diluted with HBSS to a concentration of 100 organisms/ml. One ml aliquots were dispensed on blood agar plates and incubated for 48 hours at 37° C. Organism viability was estimated from the number of colonies formed. In subsequent experiments using similar procedures we compared activity of α-MSH (4-10), (6-13), (11-13), ACTH (1-39), (18-39), and fluconazole, the latter an established […]. […] There were at least six replicates for each concentration of peptide. […] The reaction was stopped after three minutes by the addition of ice cold ethanol. cAMP was measured in duplicate using a commercial enzyme immunoassay (EIA) kit (Amersham, United Kingdom) after extraction via the liquid-phase method according to manufacturer's instructions.

| Compound | peptide concentrations with significant (p<0.01) inhibition of S. aureus colony formation [1] | concentrations giving enhanced killing (p<0.01) [2] | peptide concentrations with significant inhibitory influences on C. albicans CFU (p<0.01 vs. control) [3] | C. albicans CFU relative to control ([3]; 10^−4 forskolin) |
| --- | --- | --- | --- | --- |
| KPV | 10^−12 to 10^−4 M | 10^−12 to 10^−4 | 10^−13 to 10^−4 M | – |
| NH2-Val-Pro-Lys-Ac-Cys-Cys-Ac-Lys-Pro-Val-NH2 (CKPV; acetylated cysteine-linked dimer, C-amide) [KPV dimer] | 10^−12 to 10^−4 M | – | 10^−13 to 10^−4 M | – |
| C=C[C@@]1(C)CC(=O)[C@]2(O)[C@@]3(C)[C@@H](O)CCC(C)(C)[C@@H]3[C@H](O)[C@H](OC(C)=O)[C@@]2(C)O1 [forskolin, reference compound] | – | – | – | markedly inhibited |
